Test results: publication PMC5995255, “CD44 positive and sorafenib insensitive hepatocellular carcinomas respond to the ATP-competitive mTOR inhibitor INK128” (Oncotarget, 2018)

System: CD44high HCC cells (SNU423, SNU449, SK-Hep-1)
Test: Cell proliferation, WST-1 assay, CD44high HCC cells
Format: cell-based, human
Settings: SNU423 and SNU449 cells; 48 h

## CC(C)n1nc(-c2cc3cc(O)ccc3[nH]2)c2c(N)ncnc21 [PP242]
  anti-proliferative activity versus allosteric mTOR inhibitors: better anti-proliferative activity than rapamycin and everolimus
